Inconclusive results, whose numbers are uncertain, are shown.
experiment: enhancers of SMN2 over SMN1 splicing, cell-based, SMN2/SMN1 luciferase reporters (AID 1598); settings: SMN2 vs SMN1 luciferase splicing reporter cells; at 10 µM; stronger effect = higher value; call rule not given here

SMILES	SMN2/SMN1 luciferase ratio
NC(N)=NOCC[C@H](N)C(=O)O	inconclusive: 0.88
Cc1cccc(C)c1NC1=NCCCS1	inconclusive: 0.87
C[C@@H]1CC[C@H]2[C@@H](C)C(=O)O[C@@H]3OC4(C)CC[C@@H]1[C@]32OO4	inconclusive: 0.96
CC(N)C(O)c1ccccc1 (stereo unspecified)	inconclusive: 0.98
C[CH2][Hg][S]c1ccccc1C(=O)O	inconclusive: 1.2
c1ccc2nc(N3CCNCC3)ccc2c1	inconclusive: 1.07
CC(C)(C)NCC(O)c1cc(Cl)c(N)c(Cl)c1 (stereo unspecified)	inconclusive: 0.91
C[C@H]1C(=O)O[C@@H]2CCN3CC=C(COC(=O)[C@](C)(O)[C@]1(C)O)[C@H]23	inconclusive: 0.94
C=C1C2CC[C@H]3[C@]4(C)C[C@H](OC5OC(CO)C(OS(=O)(=O)O)C(OS(=O)(=O)O)C5OC(=O)CC(C)C)C[C@@H](C(=O)O)[C@H]4CC[C@]3(C2)[C@H]1O (stereo partly specified)	inconclusive: 0.95
CNC(C)(C)Cc1ccccc1	inconclusive: 1
O=c1c2ccccc2[se]n1-c1ccccc1	inconclusive: 0.83
CN1CCc2cc3c(cc2[C@H]1[C@@H]1OC(=O)c2c1ccc1c2OCO1)OCO3	inconclusive: 1.01
C=C[C@H]1CN2CC[C@H]1C[C@H]2[C@H](O)c1ccnc2ccccc12	inconclusive: 0.98
COc1ccc2c3c([nH]c2c1)C(C)=NCC3	inconclusive: 0.89
CCNC(C)Cc1cccc(C(F)(F)F)c1 (stereo unspecified)	inconclusive: 1.11
CC(Cc1ccc(O)cc1)NCC(O)c1cc(O)cc(O)c1 (stereo unspecified)	inconclusive: 1

Copied from the entries so far (two entries):
SMILES	SMN2/SMN1 luciferase ratio
Cc1cccc(C)c1NC1=NCCCS1	inconclusive: 0.87
C[C@@H]1CC[C@H]2[C@@H](C)C(=O)O[C@@H]3OC4(C)CC[C@@H]1[C@]32OO4	inconclusive: 0.96

— PubChem BioAssay
